PubChem BioAssay AID504774, Drosophila RNAi Screening Center, 2011

- Purpose: 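Fly genes whose loss alters survival after alkylation damage to DNA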 (primary screen)
- System: Drosophila Kc167 cells
- Reagent: long dsRNA against Drosophila genes, about 0.25 µg dsRNA per well
- Time to read-out: about 6 days: 3 days knock-down, then 3 days with or without MMS
- Conditions: methyl methanesulphonate 0.004% (w/v) for 3 days after knock-down
- Detection: 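ATP-dependent luminescence as a measure of live cells in MMS-exposed wells, quantile normalised within each plate, with replicate values also given as a mean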
- Direction: mean viability with MMS and viability with MMS: higher = more surviving cells after MMS
The deposit covers about 23,000 reagents; below is an unselected part of those that have a named target and a result. 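Values are quantile-normalised luminescence on an arbitrary scale; higher means more cells surviving MMS.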 Names joined by + are all predicted targets of the reagent. No sequences are given here.

predicted target	amplicon	mean viability with MMS	viability with MMS, replicate 1	viability with MMS, replicate 2
Boh1 (Buddy of Hmr 1)	DRSC14487	3.61e6	3.97e6	4.20e6
CG34288	DRSC13564	3.38e6	3.80e6	3.81e6
CG31463	DRSC14346	3.48e6	3.93e6	3.99e6
Gr47a (Gustatory receptor 47a)	DRSC06221	3.53e6	4.01e6	4.00e6
chm (chameau)	DRSC03341	3.63e6	4.09e6	4.16e6
CG8119	DRSC20083	3.68e6	4.16e6	4.13e6
CG12911	DRSC06226	3.59e6	4.08e6	4.03e6
CG7275	DRSC10796	3.47e6	3.91e6	3.94e6
CG31821	DRSC22162	3.56e6	4.06e6	3.99e6
alrm (astrocytic leucine-rich repeat molecule)	DRSC14436	3.20e6	3.68e6	3.64e6
CG13148	DRSC06275	3.58e6	3.98e6	4.08e6
Dd (Dullard)	DRSC20539	3.55e6	4.04e6	4.02e6
Creld (Cysteine rich with EGF like domains)	DRSC00308	3.54e6	3.98e6	4.06e6
meigo (medial glomeruli)	DRSC15877	3.29e6	3.79e6	3.70e6
CG12951	DRSC14579	3.51e6	4.01e6	3.97e6
mTerf5 (mitochondrial transcription termination factor 5)	DRSC16209	3.69e6	4.11e6	4.20e6
Ndg (Nidogen)	DRSC06223	3.47e6	3.96e6	3.87e6
CG34436	DRSC15164	4.11e6	4.86e6	4.86e6
EMC4 (ER membrane protein complex subunit 4)	DRSC11638	3.49e6	4.00e6	3.89e6
CG8389	DRSC07158	3.60e6	4.04e6	4.13e6
CG8389	DRSC22855	3.56e6	4.08e6	3.98e6
Grip163	DRSC10538	3.59e6	4.06e6	4.05e6
CG42288	DRSC06381	3.54e6	4.05e6	4.07e6
TM9SF2 (Transmembrane 9 superfamily protein member 2)	DRSC03197	3.33e6	3.66e6	3.72e6
Nse4 (Non-SMC element 4)	DRSC02239	3.44e6	4.10e6	3.68e6
CG14280	DRSC14761	3.56e6	4.00e6	4.07e6
Adk3 (Adenosine kinase 3)	DRSC05917	3.77e6	4.40e6	4.09e6
CG6733	DRSC16103	3.56e6	3.90e6	4.17e6
CG11050	DRSC02125	3.04e6	3.49e6	3.26e6
CG10147	DRSC09706	3.54e6	4.10e6	3.94e6
CG17186	DRSC15180	3.62e6	4.31e6	3.91e6
uno (univalents only)	DRSC07244	3.78e6	4.13e6	4.23e6
CG6688	DRSC16094	3.72e6	4.36e6	4.05e6
Pex14 (Peroxin 14)	DRSC11754	3.68e6	4.14e6	4.14e6
CG8708	DRSC07240	3.56e6	4.10e6	3.98e6
CG9636	DRSC16529	3.73e6	4.27e6	4.21e6
CG42365	DRSC04266	3.56e6	4.09e6	3.97e6
Or88a (Odorant receptor 88a)	DRSC16770	3.32e6	3.73e6	3.78e6
ND5 (retired record)	DRSC21281	3.37e6	3.82e6	3.81e6
CG15282	DRSC22620	3.60e6	4.07e6	4.04e6
CG15282	DRSC23090	3.34e6	3.65e6	3.95e6
CG13836 (retired record)	DRSC14686	3.67e6	4.19e6	4.12e6
CG13155	DRSC06280	3.52e6	3.99e6	3.99e6
CG8435	DRSC07179	3.25e6	3.72e6	3.77e6
CG4483	DRSC10426	1.78e6	3.92e6	
CG32507	DRSC20421	3.51e6	3.94e6	4.04e6
CG33262	DRSC22893	3.34e6	3.90e6	3.83e6
comt (comatose)	DRSC20319	3.36e6	3.84e6	3.81e6
HP1D3csd (Heterochromatin Protein 1D3 chromoshadow domain)	DRSC19548	3.46e6	3.96e6	3.92e6
CG31174	DRSC13518	3.57e6	4.12e6	3.98e6
CG13531	DRSC04173	3.46e6	3.96e6	3.86e6
Toll-7	DRSC07563	3.63e6	4.08e6	4.08e6
Nup160 + RfC38	DRSC01997	3.44e6	3.90e6	3.85e6
AkhR (Adipokinetic hormone receptor)	DRSC03329	3.46e6	3.84e6	3.92e6
otk2 (off-track2)	DRSC07303	3.57e6	4.06e6	3.99e6
CG9997	DRSC16591	4.19e6	4.94e6	5.10e6
wal (walrus)	DRSC07717	3.71e6	4.25e6	4.16e6
icln	DRSC07630	3.48e6	3.97e6	3.92e6
CG9899	DRSC04597	3.50e6	3.96e6	3.97e6
CG15579	DRSC18067	3.55e6	4.25e6	3.83e6
Oatp30B (Organic anion transporting polypeptide 30B)	DRSC02727	3.82e6	4.52e6	4.16e6
CG34200	DRSC04804	3.70e6	4.22e6	4.20e6
Ir94a (Ionotropic receptor 94a)	DRSC13538	3.46e6	3.91e6	3.94e6
CG3556	DRSC18309	3.38e6	3.80e6	3.89e6
Nmd3 (Nonsense-mediated mRNA 3)	DRSC18687	3.71e6	4.16e6	4.23e6
Nmd3 (Nonsense-mediated mRNA 3)	DRSC22834	3.48e6	4.02e6	3.91e6
CR42545 (pseudo)	DRSC03709	3.58e6	4.12e6	4.01e6
CG8728	DRSC07251	3.63e6	4.05e6	4.19e6
